Results reported in patent US11572384B2, “Unusual substrates of tubulin tyrosine ligase” (FORSCHUNGSVERBUND BERLIN E.V., priority 2016, dated 2023).
Some of these results come from one statement about several compounds together. Some compounds share one range, which may span the group rather than tell each member.

Biological target: T1, TTL (Canis lupus familiaris, UniProt A0A8I3N5B1)
T1 construct: His-Tag (N, cleaved yes); Sumo (N, cleaved yes); made in house; host or cells: E. coli BL21 (DE3)
T1 sequence (A0A8I3N5B1 1-377): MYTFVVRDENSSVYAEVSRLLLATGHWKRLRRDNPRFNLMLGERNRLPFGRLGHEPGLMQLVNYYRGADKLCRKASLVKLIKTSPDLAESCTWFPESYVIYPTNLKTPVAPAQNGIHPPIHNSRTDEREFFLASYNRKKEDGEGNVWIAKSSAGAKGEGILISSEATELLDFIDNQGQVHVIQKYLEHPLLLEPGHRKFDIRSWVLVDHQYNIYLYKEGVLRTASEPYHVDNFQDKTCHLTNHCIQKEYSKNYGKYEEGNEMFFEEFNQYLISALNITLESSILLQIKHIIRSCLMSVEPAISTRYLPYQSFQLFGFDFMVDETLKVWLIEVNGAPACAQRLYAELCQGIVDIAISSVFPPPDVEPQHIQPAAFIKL
Assay: Determination of TTL activity using carboxyfluorescein-peptide (18)
Assay type: biochemical
Settings: 1 mM substrate, 0.2 mM peptide 18, 1 μM TTL, 37° C., five hours of incubation; UPLC-MS / HPLC peak area

CC(C)C[C@H](N)C(=O)O [leucine]
yields of ligation to peptide 18 by TTL: 3-75%

N[C@@H](Cc1c[nH]c2ccccc12)C(=O)O [tryptophan]
yields of ligation to peptide 18 by TTL: 3-75%
